Consider seven molecules from patent publication US20060183194A1 (Genentech, published 2006).

The target of assay [1] is T1, ErbB-3 receptor-Ig fusion (human, UniProt P21860 20-643).
T1 construct: extracellular domain;range 224-C-terminus; also called ErbB-3-Ig; 3/3 homodimer; not shown: human IgG heavy chain constant region from His224 (hinge) on
The assay can be described thus: phage ELISA. In general terms: In an ELISA, binding on a coated surface is turned into a signal by an enzyme label.

Assay [2] addresses T2, ErbB-4 receptor-Ig fusion (human, UniProt Q15303 26-651).
T2 construct: extracellular domain;range 224-C-terminus; also called ErbB-4-Ig; not shown: human IgG heavy chain constant region from His224 (hinge) on
T2 sequence: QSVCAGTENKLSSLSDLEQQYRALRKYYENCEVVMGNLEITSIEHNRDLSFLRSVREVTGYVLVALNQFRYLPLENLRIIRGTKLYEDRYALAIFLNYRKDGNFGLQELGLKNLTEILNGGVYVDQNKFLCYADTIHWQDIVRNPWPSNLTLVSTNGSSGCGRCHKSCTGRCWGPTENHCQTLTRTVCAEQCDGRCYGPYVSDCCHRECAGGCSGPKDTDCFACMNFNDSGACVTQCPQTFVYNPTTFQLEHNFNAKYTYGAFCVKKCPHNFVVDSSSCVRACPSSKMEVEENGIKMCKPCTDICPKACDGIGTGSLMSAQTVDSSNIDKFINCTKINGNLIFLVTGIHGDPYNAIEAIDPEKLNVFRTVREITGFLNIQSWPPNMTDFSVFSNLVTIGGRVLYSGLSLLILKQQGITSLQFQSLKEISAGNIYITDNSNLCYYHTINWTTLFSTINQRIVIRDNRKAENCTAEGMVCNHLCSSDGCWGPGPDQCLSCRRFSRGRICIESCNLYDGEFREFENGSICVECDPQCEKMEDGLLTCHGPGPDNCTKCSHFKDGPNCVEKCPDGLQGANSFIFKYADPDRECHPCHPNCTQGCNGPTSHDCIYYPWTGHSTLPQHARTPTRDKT
The assay can be described thus: phage ELISA.

Where a chain is given by its changes, count along the chain named. Results are given in words; binding and its absence hold for the method and conditions named. Some binding calls cover weakened binding; strength is not graded here. For some assays here: Tags and fused reporters may be left off the sequences shown.

B1: Library D variant D1 of HRG-β1 EGF on phage (ligand, not shown: large carriers; small tags and cut ends)
chain: SHLVKCAEKEKTFCVNGGECYKVRILSNPSRYLCKCPNEFTGDRCQNYVIAS
For the molecule B1, in assay [1], the binding result is listed as “binds”.
In the case of SHLVKCAEKEKTFCVNGGECFMVKDYRYRMCKCPNEFTGDRCQNYVIAS (ligand, not shown: large carriers; small tags and cut ends) [Library E variant E3 of HRG-β1 EGF on phage], the binding entry in assay [1] is reported as “binds”.
The same measure, in the same setting: then SHLVKCAEKEKTFCVNGGECFMVKDTKYRGCKCPNEFTGDRCQNYVMAS (ligand, not shown: large carriers; small tags and cut ends) [Library E variant E8 of HRG-β1 EGF on phage], with “binds”.
The same measure, in the same setting: as for SHLVKCAEKEKTFCVNGGECFMVKDTHYRMCKCPNEFTGDRCQNYVMAS (ligand, not shown: large carriers; small tags and cut ends) [Library E variant E6 of HRG-β1 EGF on phage], the entry is “binds”.

B2: Library B variant B3 of HRG-β1 EGF on phage (ligand, not shown: large carriers; small tags and cut ends)
chain: SHLVKCGEEREGFCVNGGECFMVKDLSNPSRYLCKCPNEFTGDRCQNYVMAS
With B2, the binding entry in assay [1] and in assay [2] was “binds” throughout.

B3: Library B variant B5 of HRG-β1 EGF on phage (ligand, not shown: large carriers; small tags and cut ends)
chain: B2 chain with E8W, E9D, M50I
As for B3, the binding entry in assay [1] is recorded as “binds”.

B4: Library B variant B10 of HRG-β1 EGF on phage (ligand, not shown: large carriers; small tags and cut ends)
chain: B2 chain with G7D, E8K, E9S, M50I
Turning to B4, the binding entry in assay [1] is “binds”.
